From paper PMC6656725
No constants are given. Whether binding was seen depends on the method and setting. In cells and extracts the contact can be indirect. Here binding means that the protein was enriched with, or labelled near, the bait; the list need not be complete.

The chains behind the UniProt entries cited, without tags or fusion partners.
UniProt Q6PDQ2: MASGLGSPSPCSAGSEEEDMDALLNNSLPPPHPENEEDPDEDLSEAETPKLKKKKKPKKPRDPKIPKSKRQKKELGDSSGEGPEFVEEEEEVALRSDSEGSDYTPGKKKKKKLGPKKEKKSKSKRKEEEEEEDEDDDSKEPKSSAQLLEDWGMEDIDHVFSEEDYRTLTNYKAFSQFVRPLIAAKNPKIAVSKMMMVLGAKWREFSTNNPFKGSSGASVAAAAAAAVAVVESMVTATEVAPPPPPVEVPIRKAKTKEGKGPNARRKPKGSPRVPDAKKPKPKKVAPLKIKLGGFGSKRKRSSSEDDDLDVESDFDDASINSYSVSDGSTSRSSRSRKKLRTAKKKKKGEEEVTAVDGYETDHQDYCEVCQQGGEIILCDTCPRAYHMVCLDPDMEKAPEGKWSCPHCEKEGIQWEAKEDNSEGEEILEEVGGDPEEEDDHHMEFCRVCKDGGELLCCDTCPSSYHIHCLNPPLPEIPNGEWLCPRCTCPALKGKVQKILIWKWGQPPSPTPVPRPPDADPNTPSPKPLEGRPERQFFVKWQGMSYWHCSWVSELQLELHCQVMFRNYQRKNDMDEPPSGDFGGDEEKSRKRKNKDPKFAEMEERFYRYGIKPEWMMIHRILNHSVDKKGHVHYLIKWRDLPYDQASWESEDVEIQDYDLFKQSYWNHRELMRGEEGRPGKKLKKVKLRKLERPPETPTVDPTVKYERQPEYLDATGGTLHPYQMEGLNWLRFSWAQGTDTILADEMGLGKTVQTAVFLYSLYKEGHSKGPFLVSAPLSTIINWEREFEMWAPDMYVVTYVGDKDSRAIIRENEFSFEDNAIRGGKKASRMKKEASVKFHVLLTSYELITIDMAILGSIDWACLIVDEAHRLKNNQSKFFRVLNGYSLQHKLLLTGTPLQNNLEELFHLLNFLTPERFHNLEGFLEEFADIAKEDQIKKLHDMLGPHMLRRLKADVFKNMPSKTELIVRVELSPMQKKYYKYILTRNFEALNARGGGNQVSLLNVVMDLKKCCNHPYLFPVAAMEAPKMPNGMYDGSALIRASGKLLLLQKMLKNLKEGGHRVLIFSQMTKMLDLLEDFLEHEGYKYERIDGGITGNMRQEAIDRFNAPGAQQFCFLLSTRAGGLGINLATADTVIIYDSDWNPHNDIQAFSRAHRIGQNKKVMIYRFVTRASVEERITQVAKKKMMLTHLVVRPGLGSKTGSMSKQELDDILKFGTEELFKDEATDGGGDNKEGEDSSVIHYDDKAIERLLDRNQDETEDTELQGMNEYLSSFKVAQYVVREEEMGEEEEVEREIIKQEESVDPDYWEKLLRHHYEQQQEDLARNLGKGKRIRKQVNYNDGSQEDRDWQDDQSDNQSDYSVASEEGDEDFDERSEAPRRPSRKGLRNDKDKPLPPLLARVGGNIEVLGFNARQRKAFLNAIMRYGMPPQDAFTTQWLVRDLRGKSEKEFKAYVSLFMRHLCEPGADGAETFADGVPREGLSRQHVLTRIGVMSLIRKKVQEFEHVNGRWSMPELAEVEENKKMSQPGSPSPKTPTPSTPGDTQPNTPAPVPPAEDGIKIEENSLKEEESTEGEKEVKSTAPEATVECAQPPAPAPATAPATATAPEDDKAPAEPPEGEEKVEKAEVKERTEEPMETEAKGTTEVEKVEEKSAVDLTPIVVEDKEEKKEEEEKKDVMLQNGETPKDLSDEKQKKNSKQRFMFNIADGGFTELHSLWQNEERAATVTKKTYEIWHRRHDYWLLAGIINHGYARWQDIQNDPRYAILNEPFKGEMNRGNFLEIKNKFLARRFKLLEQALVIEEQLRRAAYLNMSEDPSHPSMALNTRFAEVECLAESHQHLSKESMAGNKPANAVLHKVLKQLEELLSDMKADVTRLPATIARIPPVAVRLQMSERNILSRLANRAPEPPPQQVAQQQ
UniProt O08900: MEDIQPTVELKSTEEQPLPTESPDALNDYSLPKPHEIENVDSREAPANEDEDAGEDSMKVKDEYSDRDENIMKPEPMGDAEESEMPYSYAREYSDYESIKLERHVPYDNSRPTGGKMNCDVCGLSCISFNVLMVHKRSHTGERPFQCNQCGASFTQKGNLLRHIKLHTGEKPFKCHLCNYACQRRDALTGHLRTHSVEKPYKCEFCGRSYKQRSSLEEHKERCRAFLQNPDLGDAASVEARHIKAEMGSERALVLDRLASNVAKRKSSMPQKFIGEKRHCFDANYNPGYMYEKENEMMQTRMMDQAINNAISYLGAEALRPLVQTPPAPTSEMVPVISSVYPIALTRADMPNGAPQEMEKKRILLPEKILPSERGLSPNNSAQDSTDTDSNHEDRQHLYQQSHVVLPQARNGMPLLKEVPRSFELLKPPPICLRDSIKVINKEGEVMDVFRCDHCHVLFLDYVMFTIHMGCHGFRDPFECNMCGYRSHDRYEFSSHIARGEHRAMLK
UniProt Q03267: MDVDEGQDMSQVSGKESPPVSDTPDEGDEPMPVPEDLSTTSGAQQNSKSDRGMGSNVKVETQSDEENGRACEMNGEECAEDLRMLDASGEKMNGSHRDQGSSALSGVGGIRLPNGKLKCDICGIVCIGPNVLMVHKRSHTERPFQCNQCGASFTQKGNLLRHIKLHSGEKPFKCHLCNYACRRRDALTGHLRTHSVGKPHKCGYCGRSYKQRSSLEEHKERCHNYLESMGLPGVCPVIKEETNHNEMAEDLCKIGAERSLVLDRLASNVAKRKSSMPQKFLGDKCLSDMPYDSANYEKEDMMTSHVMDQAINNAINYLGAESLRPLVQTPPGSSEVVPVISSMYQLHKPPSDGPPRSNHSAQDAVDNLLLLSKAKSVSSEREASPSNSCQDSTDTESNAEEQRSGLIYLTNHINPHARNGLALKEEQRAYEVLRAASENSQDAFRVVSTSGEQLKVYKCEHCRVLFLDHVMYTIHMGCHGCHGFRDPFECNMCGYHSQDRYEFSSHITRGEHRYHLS

Molecular target: T1, Eomesodermin (EOMES), endogenous, in activated mouse CD8+ T cells (mouse (endogenous in CD8+ T cells of Balb/c mice)) (UniProt O54839)
T1 sequence: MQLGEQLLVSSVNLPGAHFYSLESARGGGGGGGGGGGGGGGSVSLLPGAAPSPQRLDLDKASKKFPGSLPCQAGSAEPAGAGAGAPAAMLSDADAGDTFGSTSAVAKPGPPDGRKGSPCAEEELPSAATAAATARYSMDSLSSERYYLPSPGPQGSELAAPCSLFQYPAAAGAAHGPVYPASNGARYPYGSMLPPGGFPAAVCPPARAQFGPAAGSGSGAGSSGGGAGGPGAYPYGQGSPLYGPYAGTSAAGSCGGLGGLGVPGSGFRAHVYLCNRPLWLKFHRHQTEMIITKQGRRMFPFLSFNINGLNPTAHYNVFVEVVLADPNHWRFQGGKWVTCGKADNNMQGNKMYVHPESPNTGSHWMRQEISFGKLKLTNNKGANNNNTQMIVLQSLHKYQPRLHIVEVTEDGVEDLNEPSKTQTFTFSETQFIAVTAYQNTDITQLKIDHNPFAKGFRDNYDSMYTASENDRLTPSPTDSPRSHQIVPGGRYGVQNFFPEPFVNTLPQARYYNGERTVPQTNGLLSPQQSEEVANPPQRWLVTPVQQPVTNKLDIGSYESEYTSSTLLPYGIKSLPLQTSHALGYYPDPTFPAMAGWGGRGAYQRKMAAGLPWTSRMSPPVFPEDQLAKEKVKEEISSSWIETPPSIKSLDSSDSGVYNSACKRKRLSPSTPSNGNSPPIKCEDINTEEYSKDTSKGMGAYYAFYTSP
Assay: affinity purification with mass spectrometry; RIME: activated mouse CD8+ T cells fixed with 1% formaldehyde, chromatin sheared to 300-500 bp, immunoprecipitated with anti-EOMES or control IgG on protein G magnetic beads, on-bead trypsin digest, LC-MS/MS

binding, binds:
CHD4, endogenous, in activated mouse CD8+ T cells (from UniProt Q6PDQ2 1-1915)
IKZF3, endogenous, in activated mouse CD8+ T cells (from UniProt O08900 1-507)
IKZF1, endogenous, in activated mouse CD8+ T cells (from UniProt Q03267 1-517)
